Data as given in patent US20030099969A1 (published 2003).
No constants are given. Whether binding was seen depends on the method and setting. Binding seen in cells or lysates may run through a third protein. Some entries that bind do so weakly or less than the wild type. Tags and fused reporters may be left off the sequences shown.

Sequences of proteins named here, by UniProt entry; tags and fusion partners are left off.
UniProt P29466: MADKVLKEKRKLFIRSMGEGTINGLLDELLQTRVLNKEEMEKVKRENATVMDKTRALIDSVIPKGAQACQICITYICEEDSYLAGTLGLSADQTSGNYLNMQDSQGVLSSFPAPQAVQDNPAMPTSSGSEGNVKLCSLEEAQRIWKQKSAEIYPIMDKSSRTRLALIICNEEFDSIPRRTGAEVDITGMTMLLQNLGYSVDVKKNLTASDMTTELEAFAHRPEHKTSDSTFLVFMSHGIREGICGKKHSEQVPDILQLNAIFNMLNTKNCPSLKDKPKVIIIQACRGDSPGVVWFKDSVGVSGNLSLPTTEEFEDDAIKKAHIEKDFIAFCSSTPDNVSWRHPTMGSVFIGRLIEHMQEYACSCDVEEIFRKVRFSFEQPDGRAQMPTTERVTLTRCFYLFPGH

T1: Ipaf-CARD-GST fusion protein (human) (UniProt Q9NPP4)
T1 sequence: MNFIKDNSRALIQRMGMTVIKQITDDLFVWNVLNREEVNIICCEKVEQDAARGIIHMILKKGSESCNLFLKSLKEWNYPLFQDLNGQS


What was measured:
[1] = molecular target: T1, Ipaf-CARD-GST fusion protein (human); test: GST pull-down, autoradiography, FIG. 7
[2] = molecular target: T1, Ipaf-CARD-GST fusion protein (human); test: GST pull-down on glutathione Sepharose beads, SDS-PAGE and autoradiography
[3] = molecular target: T1, Ipaf-CARD-GST fusion protein (human); test: GST pull-down, autoradiography, FIG. 9
[4] = molecular target: T2, T7-tagged full length Ipaf (human, UniProt Q9NPP4 1-1024); test: co-immunoprecipitation from 293T lysates (IP anti-Flag, blot anti-T7)
T2 construct: also called T7-Ipaf; T7-tagged Ipaf
Procedure: 24 hours following transfection, cells were lysed in 50 mM Tris/HCl pH 7.6, 150 mM NaCl containing 0.5% NP-40, 10 μg.ml⁻¹ leupeptin and aprotinin and 0.1 mM PMSF and clarified by centrifugation at 15,000 g for 15 min. The clarified lysates were preabsorbed on protein G-Sepharose (Pharmacia) and then incubated with anti-FLAG-M5 monoclonal antibody (Eastman Kodak Co.) for 2 hours, followed by protein G-Sepharose agarose IgG beads. Immune complexes were washed extensively in the lysis buffer and eluted by boiling in an SDS sample buffer. The eluted proteins were resolved by SDS-PAGE and detected by Western analysis with a horseradish peroxidase-conjugate T7-antibody (Novagen). GST Pull-down assays were performed as described (Ahmad et al., Cancer Res 57:615-9, 1997).
24 hours following transfection, cells were lysed and the lysates immunoprecipitated (IP) with an anti-Flag antibody. The immunoprecipitates were immunoblotted (IB) with an anti-T7 antibody. Expression of T7-Ipaf or Flag-tagged constructs was determined by immunoblotting (IB) with anti-T7 or anti-Flag antibodies, respectively. […] This association was dependent on the N-terminal CARD as deletion of this domain prevented the CARD-truncated Ipaf mutant from interacting with the full-length Ipaf. Moreover, the epitope-tagged CARD of Ipaf was able to co-immunoprecipitate the full-length protein.

[5] = molecular target: T2, T7-tagged full length Ipaf; test: co-immunoprecipitation from 293T lysates (IP anti-Flag, blot anti-T7), FIG. 6

binding [1] | binding [2] | binding [3] | binding [4] | binding [5] | Molecule
binds | binds |  |  |  | 35S-labeled Ipaf (from UniProt Q9NPP4 1-1024)
 | binds | binds |  |  | 35S-labeled procaspase-1 (from UniProt P29466 1-404) (enzyme)
 |  |  | binds | binds | Flag-tagged full length Ipaf (from UniProt Q9NPP4 1-1024)
 |  |  | binds | binds | Flag-tagged CARD domain (residues 1-88) of Ipaf (protein) DYKDDDDKMNFIKDNSRALIQRMGMTVIKQITDDLFVWNVLNREEVNIICCEKVEQDAARGIIHMILKKGSESCNLFLKSLKEWNYPLFQDLNGQS
